No constants are given. Whether binding was seen depends on the method and setting. Some binding calls cover weakened binding; strength is not graded here. For some of these results: Tags and fused reporters may be left off the sequences shown. Each block holds one binder with its values, some of them ahead of it.
What was measured:
[1] = target: soluble 6xHis-tagged B7-H4 IgV-like domain (IgV) (mouse) (UniProt Q7TSP5); test: BS3 cross-linking and western blot (self-association)
[2] = target: soluble 6xHis-tagged B7-H4 extracellular portion (V1) (mouse) (UniProt Q7TSP5); test: BS3 cross-linking, SDS-PAGE and western blot (self-association)
[3] = target: PNGase F-treated V1 (mouse) (UniProt Q7TSP5); test: as above
[4] = target: soluble 6xHis-tagged B7-H4 IgC-like domain (IgC) (mouse) (UniProt Q7TSP5); test: BS3 cross-linking and western blot (self-association)

B3: PNGase F-treated V1 (ligand, mouse)
chain: LIIGFGISGKHFITVTTFTSAGNIGEDGTLSCTFEPDIKLNGIVIQWLKEGIKGLVHEFKEGKDDLSQQHEMFRGRTAVFADQVVVGNASLRLKNVQLTDAGTYTCYIRTSKGKGNANLEYKTGAFSMPEINVDYNASSESLRCEAPRWFPQPTVAWASQVDQGANFSEVSNTSFELNSENVTMKVVSVLYNVTINNTYSCMIENDIAKATGDIKVTDSEVKRRSQLQLLNSGHHHHHH
modifications: N-glycans removed by PNGase F treatment
- binding [3]: binds

B4: soluble 6xHis-tagged B7-H4 IgC-like domain (IgC) (ligand, mouse)
chain: SMPEINVDYNASSESLRCEAPRWFPQPTVAWASQVDQGANFSEVSNTSFELNSENVTMKVVSVLYNVTINNTYSCMIENDIAKATGDIKVTDSEVKRRSQLQLLNSGHHHHHH
- binding [4]: binds

Other lines, results leading:

- binding [1]: binds
B1: soluble 6xHis-tagged B7-H4 IgV-like domain (IgV) (ligand, mouse)
chain: LIIGFGISGKHFITVTTFTSAGNIGEDGTLSCTFEPDIKLNGIVIQWLKEGIKGLVHEFKEGKDDLSQQHEMFRGRTAVFADQVVVGNASLRLKNVQLTDAGTYTCYIRTSKGKGNANLEYKTGAFHHHHHH

- binding [2]: binds
B2: soluble 6xHis-tagged B7-H4 extracellular portion (V1) (ligand, mouse)
chain: B3 chain
modifications: N-glycosylated (N112, N160, N190, N196, N205, N216, N220)
